PubChem BioAssay AID1224830 – NIAID, 2016

Purpose: 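Regulators of TLR4 signalling towards TNF-alpha in macrophage-like cells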 (primary screen)
Cells: human THP-1 monocytic leukaemia cells, TNF dual-luciferase reporter clone, PMA-differentiated to macrophage-like cells
Reagents: siRNA pool against human genes, 50 nM
Duration: LPS for 4 h, given about 3 days after siRNA transfection
Conditions: bacterial LPS (TLR4 ligand), 10 ng/ml
Measured: 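TNF firefly reporter luminescence divided by renilla, normalised to the plate median, then turned into a robust z-score for each replicate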
Direction: TNF reporter robust z-score: higher = stronger TNF reporter response to LPS
Rule for the call: 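Each well counts as active if its z-score is over 2.8 or under -1.5; controls are left without a call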
Shown is one part, drawn at random, of about 18,000 deposited reagents. Over the whole deposit, about 2,900 (16%) got an active call. 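Calls are made per well; low scores hint the gene aids the LPS response, high scores that it dampens it.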 Entries without a mark were called inactive. Repeated entries: four replicate wells of each siRNA pool. Reagent sequences are not shown.

{"gene":"SLC25A19","TNF reporter robust z-score":-0.49}
{"gene":"SLC25A19","TNF reporter robust z-score":-1.04}
{"gene":"SLC25A19","TNF reporter robust z-score":-0.87}
{"gene":"SLC25A19","TNF reporter robust z-score":0.24}
{"gene":"IRF6 (interferon regulatory factor 6)","TNF reporter robust z-score":"-1.6 (active)"}
{"gene":"IRF6 (interferon regulatory factor 6)","TNF reporter robust z-score":-0.95}
{"gene":"IRF6 (interferon regulatory factor 6)","TNF reporter robust z-score":-0.38}
{"gene":"IRF6 (interferon regulatory factor 6)","TNF reporter robust z-score":-0.85}
{"gene":"EDEM1 (ER degradation enhancing alpha-mannosidase like protein 1)","TNF reporter robust z-score":-0.53}
{"gene":"EDEM1 (ER degradation enhancing alpha-mannosidase like protein 1)","TNF reporter robust z-score":-0.56}
{"gene":"EDEM1 (ER degradation enhancing alpha-mannosidase like protein 1)","TNF reporter robust z-score":-0.88}
{"gene":"EDEM1 (ER degradation enhancing alpha-mannosidase like protein 1)","TNF reporter robust z-score":1.17}
{"gene":"GGTLC2 (gamma-glutamyltransferase light chain 2)","TNF reporter robust z-score":1.58}
{"gene":"GGTLC2 (gamma-glutamyltransferase light chain 2)","TNF reporter robust z-score":-0.64}
{"gene":"GGTLC2 (gamma-glutamyltransferase light chain 2)","TNF reporter robust z-score":-0.18}
{"gene":"GGTLC2 (gamma-glutamyltransferase light chain 2)","TNF reporter robust z-score":-0.3}

Further entries follow.
{"gene":"CNIH2 (cornichon family AMPA receptor auxiliary protein 2)","TNF reporter robust z-score":-0.02}
{"gene":"CNIH2 (cornichon family AMPA receptor auxiliary protein 2)","TNF reporter robust z-score":-0.03}
{"gene":"CNIH2 (cornichon family AMPA receptor auxiliary protein 2)","TNF reporter robust z-score":-0.94}
{"gene":"CNIH2 (cornichon family AMPA receptor auxiliary protein 2)","TNF reporter robust z-score":-0.61}
{"gene":"LTAP1 (lipid transport auxiliary protein 1)","TNF reporter robust z-score":1.81}
{"gene":"LTAP1 (lipid transport auxiliary protein 1)","TNF reporter robust z-score":"3.16 (active)"}
{"gene":"LTAP1 (lipid transport auxiliary protein 1)","TNF reporter robust z-score":"3.82 (active)"}
{"gene":"LTAP1 (lipid transport auxiliary protein 1)","TNF reporter robust z-score":1.11}
{"gene":"LRFN3","TNF reporter robust z-score":-0.72}
{"gene":"LRFN3","TNF reporter robust z-score":-0.87}
{"gene":"LRFN3","TNF reporter robust z-score":-0.82}
{"gene":"LRFN3","TNF reporter robust z-score":-0.43}
{"gene":"PRSS8 (serine protease 8)","TNF reporter robust z-score":0.61}
{"gene":"PRSS8 (serine protease 8)","TNF reporter robust z-score":0.86}
{"gene":"PRSS8 (serine protease 8)","TNF reporter robust z-score":-0.88}
{"gene":"PRSS8 (serine protease 8)","TNF reporter robust z-score":-0.16}
{"gene":"H2AC20 (H2A clustered histone 20)","TNF reporter robust z-score":1.03}
{"gene":"H2AC20 (H2A clustered histone 20)","TNF reporter robust z-score":0.58}
{"gene":"H2AC20 (H2A clustered histone 20)","TNF reporter robust z-score":-0.07}
{"gene":"H2AC20 (H2A clustered histone 20)","TNF reporter robust z-score":0.97}
{"gene":"APLNR (apelin receptor)","TNF reporter robust z-score":1.15}
{"gene":"APLNR (apelin receptor)","TNF reporter robust z-score":2.27}
{"gene":"APLNR (apelin receptor)","TNF reporter robust z-score":0.63}
{"gene":"APLNR (apelin receptor)","TNF reporter robust z-score":-0.2}
{"gene":"ASCL2 (achaete-scute family bHLH transcription factor 2)","TNF reporter robust z-score":-0.25}
{"gene":"ASCL2 (achaete-scute family bHLH transcription factor 2)","TNF reporter robust z-score":1.1}
{"gene":"ASCL2 (achaete-scute family bHLH transcription factor 2)","TNF reporter robust z-score":0.65}
{"gene":"ASCL2 (achaete-scute family bHLH transcription factor 2)","TNF reporter robust z-score":-0.87}
{"gene":"PDHB (pyruvate dehydrogenase E1 subunit beta)","TNF reporter robust z-score":"3.78 (active)"}
{"gene":"PDHB (pyruvate dehydrogenase E1 subunit beta)","TNF reporter robust z-score":1.58}
{"gene":"PDHB (pyruvate dehydrogenase E1 subunit beta)","TNF reporter robust z-score":0.35}
{"gene":"PDHB (pyruvate dehydrogenase E1 subunit beta)","TNF reporter robust z-score":2.53}
